No constants are given. Whether binding was seen depends on the method and setting. Some entries that bind do so weakly or less than the wild type.
Legend:
[1] = biological target: Full-length Arabidopsis thaliana AKT1 with N-terminal Flag (pCAG, HEK293F), co-expressed with AtKC1 (Arabidopsis thaliana) (UniProt Q38998); test: cryo-EM structure; single-particle cryo-EM of the AKT1-AtKC1 complex co-expressed in HEK293F cells and purified by Flag then Strep affinity; 25 mM Tris-HCl pH 7.4, 150 mM KCl, 0.06% digitonin; both purified
[2] = biological target: AKT6 (SPIK), Arabidopsis potassium channel (Arabidopsis) (UniProt Q8GXE6); test: cryo-EM structure; cryo-EM, 2D classification only (preliminary analysis); no map or model reported; both purified

Amino acid sequences for entries named in this document (tags omitted).
UniProt Q38998: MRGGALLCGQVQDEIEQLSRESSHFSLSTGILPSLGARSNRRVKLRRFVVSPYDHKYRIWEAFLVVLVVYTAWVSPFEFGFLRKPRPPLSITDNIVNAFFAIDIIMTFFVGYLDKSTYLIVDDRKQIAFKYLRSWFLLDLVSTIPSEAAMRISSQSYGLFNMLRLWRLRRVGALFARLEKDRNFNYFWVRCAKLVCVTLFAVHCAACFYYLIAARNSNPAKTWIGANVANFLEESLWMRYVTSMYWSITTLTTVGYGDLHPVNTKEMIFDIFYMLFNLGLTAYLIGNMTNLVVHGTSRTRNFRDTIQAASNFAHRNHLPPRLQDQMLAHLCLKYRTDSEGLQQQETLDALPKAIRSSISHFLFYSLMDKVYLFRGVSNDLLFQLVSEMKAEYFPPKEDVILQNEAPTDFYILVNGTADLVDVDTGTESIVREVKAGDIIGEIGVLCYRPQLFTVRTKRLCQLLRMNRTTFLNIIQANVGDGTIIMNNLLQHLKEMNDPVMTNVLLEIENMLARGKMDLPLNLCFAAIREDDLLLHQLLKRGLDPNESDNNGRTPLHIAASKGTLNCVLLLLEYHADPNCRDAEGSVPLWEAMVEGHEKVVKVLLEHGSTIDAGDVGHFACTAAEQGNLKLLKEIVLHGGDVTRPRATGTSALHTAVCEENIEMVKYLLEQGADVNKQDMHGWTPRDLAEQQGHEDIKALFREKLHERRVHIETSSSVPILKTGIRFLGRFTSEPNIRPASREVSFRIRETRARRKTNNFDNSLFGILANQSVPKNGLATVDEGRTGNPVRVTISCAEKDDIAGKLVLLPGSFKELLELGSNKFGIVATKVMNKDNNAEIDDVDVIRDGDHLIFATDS
UniProt Q8GXE6: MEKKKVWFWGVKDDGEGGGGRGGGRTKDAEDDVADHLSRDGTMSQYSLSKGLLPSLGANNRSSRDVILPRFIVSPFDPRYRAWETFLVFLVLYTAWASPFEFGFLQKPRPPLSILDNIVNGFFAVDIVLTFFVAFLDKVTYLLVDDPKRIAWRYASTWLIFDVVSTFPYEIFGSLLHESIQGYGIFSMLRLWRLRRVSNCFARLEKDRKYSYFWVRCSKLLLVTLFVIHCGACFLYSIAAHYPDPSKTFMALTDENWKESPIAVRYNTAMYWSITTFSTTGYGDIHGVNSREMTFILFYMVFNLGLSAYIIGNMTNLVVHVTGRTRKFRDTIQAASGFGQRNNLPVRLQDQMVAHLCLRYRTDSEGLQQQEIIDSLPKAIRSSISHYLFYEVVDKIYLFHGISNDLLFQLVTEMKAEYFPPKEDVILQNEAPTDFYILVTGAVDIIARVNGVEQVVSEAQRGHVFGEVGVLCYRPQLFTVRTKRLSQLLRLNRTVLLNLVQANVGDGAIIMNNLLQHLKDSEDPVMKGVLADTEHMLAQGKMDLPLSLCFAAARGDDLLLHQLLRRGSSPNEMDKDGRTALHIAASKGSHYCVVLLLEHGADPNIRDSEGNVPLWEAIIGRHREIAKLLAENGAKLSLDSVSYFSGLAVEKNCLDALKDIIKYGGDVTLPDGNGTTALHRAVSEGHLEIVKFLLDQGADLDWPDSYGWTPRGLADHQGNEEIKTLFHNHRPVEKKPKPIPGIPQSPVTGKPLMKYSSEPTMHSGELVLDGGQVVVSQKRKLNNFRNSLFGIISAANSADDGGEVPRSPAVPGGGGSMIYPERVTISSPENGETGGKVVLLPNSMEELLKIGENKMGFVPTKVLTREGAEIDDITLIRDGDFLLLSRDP
UniProt P92960: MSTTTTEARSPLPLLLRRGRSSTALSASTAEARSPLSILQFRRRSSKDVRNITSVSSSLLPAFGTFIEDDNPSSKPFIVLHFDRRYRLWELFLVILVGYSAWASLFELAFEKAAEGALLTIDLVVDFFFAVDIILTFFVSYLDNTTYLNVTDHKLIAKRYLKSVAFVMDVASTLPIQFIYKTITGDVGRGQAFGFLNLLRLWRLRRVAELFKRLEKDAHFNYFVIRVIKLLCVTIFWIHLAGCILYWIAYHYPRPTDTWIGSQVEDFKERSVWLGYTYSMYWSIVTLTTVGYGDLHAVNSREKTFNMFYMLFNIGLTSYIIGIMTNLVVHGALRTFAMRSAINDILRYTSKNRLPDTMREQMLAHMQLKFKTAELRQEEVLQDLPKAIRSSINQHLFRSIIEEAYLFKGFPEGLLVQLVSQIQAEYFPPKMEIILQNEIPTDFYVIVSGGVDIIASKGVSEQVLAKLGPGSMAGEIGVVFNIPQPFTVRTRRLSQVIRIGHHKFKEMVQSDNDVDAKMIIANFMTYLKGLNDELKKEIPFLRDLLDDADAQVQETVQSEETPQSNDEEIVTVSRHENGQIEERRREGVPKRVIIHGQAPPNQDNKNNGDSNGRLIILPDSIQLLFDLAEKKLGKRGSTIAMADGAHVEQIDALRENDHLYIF

Substance | binding [1] | binding [2]
Full-length AtKC1, potassium channel alpha-subunit, with N-terminal Twin-Strep (pCAG, HEK293F) (from UniProt P92960 1-662) | binds | 
AKT6 (SPIK), Arabidopsis potassium channel (from UniProt Q8GXE6 1-888) |  | binds
